# Measurements reported in PubChem BioAssay AID602196 (INSERM, 2012).
# Purpose: 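Knock-downs that protect lung cancer cells from cisplatin or sensitise them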
# System: human A549 lung cancer cells
# Reagent: siRNA pair against human genes
# Duration: 48 h transfection before cisplatin; time from cisplatin to read-out not stated
# Challenge: cisplatin at a dose killing half of control-siRNA cells; exact dose and duration not given
# Measured: 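Shift in cisplatin death relative to control siRNA, from -50 (all cells die) to +50 (no cells die); siRNAs harmful on their own scored 0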
# Reading the numbers: two-siRNA summed score (-2 to +2): higher = both siRNAs protect from cisplatin killing; -2 means both sensitise; mean protection from cisplatin (shift in death) and protection from cisplatin (shift in death), siRNA C and protection from cisplatin (shift in death), siRNA D: higher = protection from cisplatin killing
# Active means: 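siRNAs harmful alone (LDH or WST-1) get 0; others get +1 for less and -1 for more cisplatin killing; genes are active when the two siRNAs give the same sign, summing to ±2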
# Calls: active = both siRNAs shift cisplatin killing the same way; inactive = no consistent shift, or siRNA harmful alone
# The whole screen tested about 23,000 reagents; this is an unselected part. 455 of all reagents (2%) count as active. 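Active includes both protection and sensitisation; some change values fall well beyond the stated -50 to +50 range.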 A number with no mark means an inactive call. Not stated in the record: the amount of reagent.
gene symbol,two-siRNA summed score (-2 to +2),mean protection from cisplatin (shift in death) (%),"protection from cisplatin (shift in death), siRNA C (%)","protection from cisplatin (shift in death), siRNA D (%)"
SAP30BP,0,-1.3,0.5,-3.1
DKFZp762F0713,1,10.1,17.3,2.8
PYGM,0,12.4,11.3,13.4
LOC338949,0,1.6,9.1,-5.9
KATNB1,0,9.4,9.9,9
B9D2,0,5.5,5.2,5.7
ADAM9,0,-1.8,-8.3,4.8
LRRN1,0,7.2,24.5,-10.1
LOC402199,0,3.3,3.9,2.7

2 of these entries, set out differently.
gene symbol | two-siRNA summed score (-2 to +2) | mean protection from cisplatin (shift in death) (%) | protection from cisplatin (shift in death), siRNA C (%) | protection from cisplatin (shift in death), siRNA D (%)
ADAM9 | 0 | -1.8 | -8.3 | 4.8
LRRN1 | 0 | 7.2 | 24.5 | -10.1

Further results follow:
gene symbol,two-siRNA summed score (-2 to +2),mean protection from cisplatin (shift in death) (%),"protection from cisplatin (shift in death), siRNA C (%)","protection from cisplatin (shift in death), siRNA D (%)"
SS18L1,1,12.6,14.8,10.4
TMEM144,0,-1.7,9.6,-13.1
TIPRL,0,2.3,-4.2,8.8
LOC388444,-1,-11.4,-22.2,-0.5
RBM7,1,8.5,10.8,6.3
MAF,0,13.8,15,12.5
OR52K2,1,16.4,11.2,21.6
DUS3L,0,13.8,-2.7,30.3
COX15,0,10.3,14.6,5.9
LYG1,0,6.3,5.3,7.3
RGCC,0,0.2,-8.3,8.7
ONECUT1,0,-1.2,-2.1,-0.3
BCL11B,0,-2.8,-6.9,1.4
LOC201181,1,13.8,14.7,13
